Values quoted from earlier work, collected in patent US5747503A, “Selective inhibitors of biogenic amine transporters” (priority 1996, dated 1998).

Molecular target: PCP site 2
Conditions: Rothman et al. (1992); cited from earlier work

SMILES: CN1[C@@H]2CC[C@H]1C[C@@H](OC(c1ccccc1)c1ccccc1)C2 [benztropine]
- Ki: 0.183 µM
